In PubChem BioAssay AID651595 (National Center for Advancing Translational Sciences (NCATS), 2012) one finds activity change, negative = cytotoxicity data, which are given here for ten molecules.

Among all 1,100 compounds or so, fewer than 10 were called active. Not shown: some 6% with an inconclusive outcome. The call rests on the fitted dose curve; in most records, active means well fitted cell-killing curve with a large enough effect; inconclusive means small, poorly fitted or top-dose-only effect; inactive means flat fitted curve, though single readings scatter. This is one part of the list.

The assay is described as follows: qHTS of Nrf2 Activators: Hit Validation in Cytotox Assay.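 Further: compound exposure lasted 24 hours before the ATP readout; 0% is about no effect.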 Conditions: Cell viability counter-screen for Nrf2 activator hits; at 46.1 µM (top of the series). From the text:
Many diseases have some form of oxidative stress injury and ties to inflammation, causing a host of problems for the patient. The antioxidant response element (ARE) plays an important role in alleviating the harmful effects of oxidative stress. The antioxidant response element (ARE) is a transcriptional regulatory element involved in the activation of genes coding for a number of antioxidant proteins and detoxifying enzymes. These enzymes work in concert to protect tissues from oxidative insults and chemical toxicities in human hepatocytes and immune cells. The protective effects of ARE activation are primarily triggered through Nrf2 (NF-E2-related factor) binding to and activating AREs. It is known that Nrf2 controls the production of over 250 antioxidant and detoxification proteins (Hu et al., 2006), thereby protecting tissues by increasing cellular antioxidant content and suppressing inflammatory signaling pathways. The transcription factor Nrf2 is a central link between oxidative chemicals, such as phenolic antioxidants and electrophilic compounds, and the activation of ARE. Nrf2 levels are constitutively low as a consequence of its interaction with Keap1, which targets its degradation (Zipper and Mulcahy, 2002). Electrophiles react with key cysteine residues in Keap1, releasing Nrf2 and allowing its translocation to the nucleus. Once within the nucleus, Nrf2 complexes with coactivators such as p300, and binds to the AREs to induce gene transcription of cytoprotective enzymes, resulting in the prevention of toxicity. Activation of Nrf2 protects tissues by increasing cellular antioxidant content and suppressing inflammatory signaling pathways. Identifying novel and potent Nrf2 activators by using the AREc32 cell line to detect ARE activation by small molecules will lead to the identification and development of probes to study protective pathways in multiple tissues. These specific probes are essential to study the ARE pathway, and eventually to determine whether this pathway does activate genes that could protect against a host of diseases, including cardiovascular diseases, obesity, diabetes, Alzheimer's, and Parkinson's disease.
This project's aim is to identify novel and potent Nrf2 activators by using the AREc32 cell line to detect ARE activation by small molecules, which will lead to the identification and development of probes to study the ARE pathway. Cytotoxic compounds are flagged as active, and inactivity is desired in this assay.
NIH Chemical Genomics Center [NCGC]
NIH Molecular Libraries Probe Centers Network [MLPCN]
Assay Submitter (PI): Curtis Klaassen, University of Kansas Medical Center
Cell viability after compound treatment was measured using a luciferase-coupled ATP quantitation assay (CellTiter-Glo, Promega) in AREc32_fluc cells. The change of intracellular ATP content indicates the number of metabolically competent cells after compound treatment. AREc32_fluc cells were harvested from T225 flask and resuspended in phenol red free OPTI-MEM medium with 5% FBS. Then 5 microL of 200,000 cells/ml resuspended cells was dispensed into each well of white, solid bottom, 1536-well tissue culture-treated plates using a Multidrop Combi dispenser. After overnight culture at 37 degrees C with 5% CO2, a total of 23 nL of compounds at 7 selected concentrations from the cherry pick or positive control (40 uM stock of CDDO-IM and 2 mM of tBHQ) in DMSO was transferred to each well of the assay plate using a pintool (Kalypsys, San Diego, CA), and the plates were further incubated at 37 degrees C with 5% CO2 for 24 hours. After that, 4 microL of CellTilter-GloTM luminescent substrate mix (Promega) was added to each well. The plate was incubated at room temperature for 30 minutes. The plates were measured on a ViewLux plate reader (PerkinElmer) with clear filter.
A general note: qHTS replaces the single test concentration by a dilution series.
For `Fc1cccc(F)c1-c1nc(-c2ccc(Cl)cc2)no1`, the activity change, negative = cytotoxicity was inactive: 0.737%.

Consider `O=C(Nc1ccc(Cl)c(Cl)c1)c1ccco1`, for which the activity change, negative = cytotoxicity is inactive: -1.46%.

As to `O=C(/C=C/c1ccccc1)c1c(O)n(CCc2ccccc2)c(=O)[nH]c1=O`, the activity change, negative = cytotoxicity is inactive: 10.8%.

In the case of `Clc1ccccc1Nc1ncnc(-n2cccc2)n1`, the activity change, negative = cytotoxicity was inactive: -0.699%.

For `O=C1c2ccccc2-c2cc3ccccc3cc21`, the activity change, negative = cytotoxicity was inactive: -15.3%.

With `O=c1[nH]c(=S)[nH]c(O)c1N=Nc1ccc(S(=O)(=O)N2CCc3ccccc32)cc1`, the activity change, negative = cytotoxicity was inactive: -9.45%.

For the molecule `CC(=CCOc1ccc2ccc(=O)oc2c1)C1=CC(=O)C(C)(C)O1`, the activity change, negative = cytotoxicity was inactive: 0.266%.

As for `CCOc1ccc(-n2c(O)c(N=Nc3ccc([N+](=O)[O-])cc3)c(=O)[nH]c2=O)cc1`, the activity change, negative = cytotoxicity was inactive: 4.98%.

For the molecule `CCCCn1c(O)c(C(=O)/C=C/c2ccc3c(c2)OCO3)c(=O)[nH]c1=O`, the activity change, negative = cytotoxicity was inactive: -1.42%.

Take `O=C(O)c1ccc([N+](=O)[O-])c([N+](=O)[O-])c1`: the activity change, negative = cytotoxicity is inactive: 13.5%.
